Source: US10159726B2, “Peptides, combination of peptides and scaffolds for use in immunotherapeutic treatment of various cancers” (Immatics Biotechnologies GmbH, priority 2015, dated 2018)

Assays:
Parameters in all cases: species or system human
[1] = tested on: HLA-A*02 molecules of primary tumors; assay: Identification and relative LC-MS quantitation of HLA-A*02 tumor-associated peptides presented on tissue samples (XPRESIDENT presentation profiles)
[2] = tested on: source genes of selected peptides; assay: Expression profiling of source genes by in-house RNAseq, tumor vs normal tissues (target coverage); conditions: in-house RNASeq; for Target coverage, over-expression of source gene, AML: AML (N = 7), over-expression = more than 1.5-fold higher expression on tumor vs highest-expressing relevant normal tissue; for Target coverage, over-expression of source gene, BRCA: BRCA (N = 10); for Target coverage, over-expression of source gene, BRCA / Target coverage, over-expression of source gene, CLL / Target coverage, over-expression of source gene, CRC / Target coverage, over-expression of source gene, GB / Target coverage, over-expression of source gene, HCC / Target coverage, over-expression of source gene, OC / Target coverage, over-expression of source gene, OSCAR / Target coverage, over-expression of source gene, PC / Target coverage, over-expression of source gene, RCC / Target coverage, over-expression of source gene, SCLC / Target coverage, over-expression of source gene, pNSCLC: over-expression = more than 1.5-fold vs highest normal tissue; for Target coverage, over-expression of source gene, CLL: CLL (N = 10); for Target coverage, over-expression of source gene, CRC: CRC (N = 20); for Target coverage, over-expression of source gene, GB: GB (N = 24); for Target coverage, over-expression of source gene, HCC: HCC (N = 15); for Target coverage, over-expression of source gene, OC: OC (N = 12); for Target coverage, over-expression of source gene, OSCAR: OSCAR (N = 11); for Target coverage, over-expression of source gene, PC: PC (N = 26); for Target coverage, over-expression of source gene, RCC: RCC (N = 10); for Target coverage, over-expression of source gene, SCLC: SCLC (N = 10); for Target coverage, over-expression of source gene, pNSCLC: pNSCLC (N = 11)
[3] = tested on: source genes of selected peptides; assay: Target coverage of source genes in tumor entities based on TCGA Research Network data; conditions: over-expressed = more than 2-fold above the highest 75% percentile of normal organs; for Target coverage, over-expression category of source gene, BLCA (N = 408): Bladder urothelial carcinoma; for Target coverage, over-expression category of source gene, CESC (N = 307): Cervical squamous cell carcinoma and endocervical adenocarcinoma; for Target coverage, over-expression category of source gene, HNSC (N = 521): Head and neck squamous cell carcinoma
[4] = tested on: HLA-A*24 molecules of primary tumors; assay: Identification and relative LC-MS quantitation of HLA-A*24 tumor-associated peptides presented on tissue samples (XPRESIDENT presentation profiles); conditions: Table 9B: selected HLA-A*24 peptides; presentation on additional cancer entities
[5] = Table 8A: selected HLA-A*02-binding tumor-associated peptides, cancer entities on which the peptide was found presented
[6] = Table 8B: selected HLA-A*02 peptides, presentation on additional cancer entities

Substance | Peptide Presentation on cancer entities [1, 5] | Peptide Presentation on cancer entities [1, 6] | Target coverage, over-expression of source gene, AML [2] | Target coverage, over-expression of source gene, BRCA [2] | Target coverage, over-expression of source gene, CLL [2] | Target coverage, over-expression of source gene, CRC [2] | Target coverage, over-expression of source gene, GB [2] | Target coverage, over-expression of source gene, HCC [2] | Target coverage, over-expression of source gene, OC [2] | Target coverage, over-expression of source gene, OSCAR [2] | Target coverage, over-expression of source gene, PC [2] | Target coverage, over-expression of source gene, RCC [2] | Target coverage, over-expression of source gene, SCLC [2] | Target coverage, over-expression of source gene, pNSCLC [2] | Target coverage, over-expression category of source gene, BLCA (N = 408) [3] | Target coverage, over-expression category of source gene, CESC (N = 307) [3] | Target coverage, over-expression category of source gene, HNSC (N = 521) [3] | further results
54: peptide found in ITGA2 (gene looked up) (FINPKGNWLL; listed as Homo sapiens) [compound 54] | UBC, NSCLC, clPC | UTC, HNSCC | I (<19% over-expression = I) | I (<19% over-expression = I) | I (<19% over-expression = I) | I (<19% over-expression = I) | I (<19% over-expression = I) | I (<19% over-expression = I) | I (<19% over-expression = I) | I (<19% over-expression = I) | II (20-49% = II) | I (<19% over-expression = I) | I (<19% over-expression = I) | II (20-49% = II) | C (>=5% of tumors above the cutoff, but <20%) | C (>=5% of tumors above the cutoff, but <20%) | C (>=5% of tumors above the cutoff, but <20%) | Target coverage, over-expression category of source gene, CHOL (N = 36) ([3]; Cholangiocarcinoma): C (>=5% of tumors above the cutoff, but <20%)
50 (EYALLYHTL; listed as Homo sapiens) [compound 50] |  | GBC_CCC |  |  |  |  |  |  |  |  |  |  |  |  |  |  |  | Peptide Presentation on cancer entities [4]: PCA, HCC, NSCLC, CRC, GC, RCC
31: peptide found in PRKDC (gene looked up) (ALSDETKNNWEV; listed as Homo sapiens) [compound 31] | AML, CLL |  | I (<19% over-expression = I) | III (50-69% = III) | I (<19% over-expression = I) | II (20-49% = II) | III (50-69% = III) | I (<19% over-expression = I) | III (50-69% = III) | II (20-49% = II) | I (<19% over-expression = I) | I (<19% over-expression = I) | IV (>70% = IV) | III (50-69% = III) | C (>=5% of tumors above the cutoff, but <20%) | C (>=5% of tumors above the cutoff, but <20%) | B (>=20% of tumors above the cutoff, but <50%) | Target coverage, over-expression category of source gene, SARC (N = 263) ([3]; Sarcoma): C (>=5% of tumors above the cutoff, but <20%); Target coverage, over-expression category of source gene, SKCM (N = 473) ([3]; Skin cutaneous melanoma): C (>=5% of tumors above the cutoff, but <20%); Target coverage, over-expression category of source gene, STAD (N = 415) ([3]; Stomach adenocarcinoma): B (>=20% of tumors above the cutoff, but <50%); Target coverage, over-expression category of source gene, TGCT (N = 156) ([3]; Testicular germ cell tumors): B (>=20% of tumors above the cutoff, but <50%); Target coverage, over-expression category of source gene, UCS (N = 57) ([3]; Uterine carcinosarcoma): B (>=20% of tumors above the cutoff, but <50%); Target coverage, over-expression category of source gene, UVM (N = 80) ([3]; Uveal melanoma): C (>=5% of tumors above the cutoff, but <20%)

For part of these data: Expression values are those of the mRNA of the gene that encodes the peptide; a gene is named only where it was looked up.
